Data taken from PubChem BioAssay (NCATS).
“And” between values parts separate entries of the source, which are not always exact repeats. Equal entries are not always repeated. Inconclusive results, whose numbers are uncertain, are shown with a selection of clear calls. Potencies beside an inconclusive call are fits to weak or partial responses and may not hold up. The source made the active and inactive calls. Calls follow the shape of the dose curve; as a rule, active = well fitted cell-killing curve with a large enough effect; inconclusive = small, poorly fitted or top-dose-only effect, or effect the other way; inactive = no such curve, though single readings can be large or run the other way.

Tests used:
[1] = Quantitative High-Throughput drug screen in 47 multiple myeloma cell lines against the NCATS MIPE library collection: MM1R_ATCC cell viability assay (AID 1918981); also: nearly all actives have a fitted effect of over 35% in size
In short: (§1)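 MIPE 4.0 approved/investigational drugs; 500 cells/well; 48 h 37 °C humidified 5% CO2; CTG luminescence readout; DMSO = 100%, media = 0% viability.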

[2] = Quantitative High-Throughput drug screen in 47 multiple myeloma cell lines against the NCATS MIPE library collection: LP1_DSMZ cell viability assay (AID 1918982); details: LP1 myeloma viability, CellTiter-Glo ATP luminescence, 48 h; viability (% of control): at 45.8 µM (top of the series); also: nearly all actives have a fitted effect of over 35% in size
In short: as §1

[3] = Quantitative High-Throughput drug screen in 47 multiple myeloma cell lines against the NCATS MIPE library collection: L363_DSMZ cell viability assay (AID 1918984); details: L363 myeloma viability, CellTiter-Glo ATP luminescence, 48 h; viability (% of control): at 45.8 µM (top of the series); also: nearly all actives have a fitted effect of over 40% in size
In short: as §1

[4] = Quantitative High-Throughput drug screen in 47 multiple myeloma cell lines against the NCATS MIPE library collection: KMS34_JCRB cell viability assay (AID 1918985); details: KMS34 myeloma viability, CellTiter-Glo ATP luminescence, 48 h; viability, percent of control: at 45.8 µM (top of the series); also: nearly all actives have a fitted effect of over 40% in size
In short: as §1

[5] = Quantitative High-Throughput drug screen in 47 multiple myeloma cell lines against the NCATS MIPE library collection: OCIMY5_PLB cell viability assay (AID 1918988); details: OCI-MY5 myeloma viability, ATP luminescence, 48 h; viability, % of control: at 45.8 µM (top of the series); also: nearly all actives have a fitted effect of over 65% in size;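 as to viability, % of control: 100% = DMSO-treated wells and 0% = wells with media alone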
In short: as §1

[6] = Quantitative High-Throughput drug screen in 47 multiple myeloma cell lines against the NCATS MIPE library collection: SKMM1_PLB cell viability assay (AID 1919863); details: SKMM1 myeloma viability, CellTiter-Glo ATP, 48 h; viability: stronger effect = lower value; also: nearly all actives have a fitted effect of over 35% in size
In short: as §1

[7] = Quantitative High-Throughput drug screen in 47 multiple myeloma cell lines against the NCATS MIPE library collection: U266_ATCC cell viability assay (AID 1919864); also: nearly all actives have a fitted effect of over 35% in size
In short: as §1

[8] = Quantitative High-Throughput drug screen in 47 multiple myeloma cell lines against the NCATS MIPE library collection: OCIMY7_PLB cell viability assay (AID 1918987); details: OCI-MY7 myeloma viability, CellTiter-Glo ATP, 48 h; viability (% of DMSO): at 45.8 µM (top of the series); also: nearly all actives have a fitted effect of over 65% in size
In short: as §1

[9] = Quantitative High-Throughput drug screen in 47 multiple myeloma cell lines against the NCATS MIPE library collection: OPM1_PLB cell viability assay (AID 1918989); details: CellTiter-Glo, 48 h; viability (% of control): at 45.8 µM (top of the series); also: nearly all actives have a fitted effect of over 40% in size
In short: as §1

[10] = Quantitative High-Throughput drug screen in 47 multiple myeloma cell lines against the NCATS MIPE library collection: KMS28PE_JCRB cell viability assay (AID 1918983); also: nearly all actives have a fitted effect of over 35% in size
In short: as §1
Potency is read from the fitted curve at half-maximal effect.

Compound	Potency [1]	Potency [2]	Potency [3]	Potency [4]	Potency [5]	Potency [6]	Potency [7]	Potency [8]	Potency [9]	Potency [10]	viability [6]	viability, percent of control [4]
CNCc1ccc(-c2[nH]c3cc(F)cc4c3c2CCNC4=O)cc1	inactive	inactive	inactive	inactive	inactive	inconclusive: 1.18 µM [cytotoxic, full curve, poor fit]	inconclusive: 0.0132 µM [rising, full curve, poor fit]	–	–	–	–	–
O=C(O)c1cc(O)c2c(c1)C(=O)c1cccc(O)c1C2=O	inconclusive: 38.2 µM [cytotoxic, partial curve]	inconclusive: 42.9 µM [cytotoxic, single point]	inconclusive: 24.1 µM [cytotoxic, partial curve, poor fit]	inconclusive: 42.9 µM [cytotoxic, partial curve, poor fit]	–	inconclusive: 38.2 µM [cytotoxic, partial curve]	inconclusive: 67.9 µM [cytotoxic, single point]	inconclusive: 0.96 µM [cytotoxic, full curve, poor fit]	–	–	–	–
CCC(=C(CC)c1ccc(O)cc1)c1ccc(O)cc1	active: 14.8 µM	inconclusive: 20.9 µM [cytotoxic, partial curve]	inconclusive: 10.5 µM [cytotoxic, partial curve, poor fit]	–	–	active: 14.8 µM	inconclusive: 18.7 µM [cytotoxic, partial curve, poor fit]	inconclusive: 20.9 µM [cytotoxic, partial curve, poor fit]	inconclusive: 13.2 µM [cytotoxic, partial curve, poor fit]	–	–	–
Cc1cccc(C#Cc2ccccc2)n1	inconclusive: 3.72 µM [cytotoxic, full curve, poor fit]	–	inconclusive: 0.662 µM [cytotoxic, full curve, poor fit]	inconclusive: 1.32 µM [cytotoxic, full curve, poor fit]	inconclusive: 23.5 µM [cytotoxic, partial curve, poor fit]	–	inactive	inconclusive: 11.8 µM [cytotoxic, partial curve, poor fit]	–	inactive	inactive: 120%	–
CC[C@]1(O)C[C@H]2CN(CCc3c([nH]c4ccccc34)[C@@](C(=O)OC)(c3cc4c(cc3OC)N(C=O)[C@H]3[C@@](O)(C(=O)OC)[C@H](OC(C)=O)[C@]5(CC)C=CCN6CC[C@]43[C@@H]65)C2)C1	inconclusive: 0.0418 µM [cytotoxic, full curve]	inconclusive: 0.0053 µM [cytotoxic, full curve]	–	–	inconclusive: 2.96 µM [cytotoxic, partial curve, poor fit]	active: 0.0053 µM	inconclusive: 0.0296 µM [cytotoxic, full curve]	–	–	–	–	–
O=C(Nc1ccc([N+](=O)[O-])cc1Cl)c1cc(Cl)ccc1O	active: 1.66 µM	active: 0.743 µM	active: 1.05 µM	–	active: 1.66 µM	active: 1.48 µM	inconclusive: 1.32 µM [cytotoxic, full curve]	inconclusive: 1.66 µM [cytotoxic, full curve, poor fit]	active: 0.833 µM	–	–	–
CC(C)c1ccc2oc3nc(N)c(C(=O)O)cc3c(=O)c2c1	inactive	inconclusive: 0.166 µM [rising, full curve, poor fit]	inconclusive: 16.6 µM [cytotoxic, partial curve, poor fit]	–	inconclusive: 37.2 µM [cytotoxic, partial curve, poor fit]	inconclusive: 37.2 µM [cytotoxic, single point]	inconclusive: 0.0017 µM [rising, full curve, poor fit]	–	inconclusive: 33.2 µM [cytotoxic, single point]	–	–	inconclusive: 94.7% [cytotoxic]
Cc1cc(O)c2c(c1)C(=O)c1cc(O)cc(O)c1C2=O	inconclusive: 20.9 µM [cytotoxic, partial curve, poor fit]	inconclusive: 20.9 µM [cytotoxic, partial curve]	inactive	–	inconclusive: 0.833 µM [cytotoxic, partial curve, poor fit]	active: 20.9 µM	inconclusive: 13.2 µM [cytotoxic, partial curve, poor fit]	inactive	–	–	–	–
CC(C)(C)Cn1c(N)nc2ccc(-c3[nH]c(C(C)(C)C)nc3-c3ccc(F)cc3)nc21	inconclusive: 18.7 µM [cytotoxic, partial curve]	inconclusive: 23.5 µM [cytotoxic, partial curve]	inactive	inconclusive: 7.43 µM [cytotoxic, partial curve, poor fit]	–	inconclusive: 5.9 µM [cytotoxic, partial curve, poor fit]	inconclusive: 26.4 µM [cytotoxic, single point]	–	–	–	–	–
O=c1cc(-c2ccc(O)cc2)oc2cc(O)cc(O)c12	inconclusive: 20.9 µM [cytotoxic, partial curve]	inconclusive: 2.64 µM [cytotoxic, full curve, poor fit]	inconclusive: 0.235 µM [cytotoxic, full curve, poor fit]	active: 13.2 µM	–	inconclusive: 23.5 µM [cytotoxic, partial curve, poor fit]	–	inconclusive: 1.48 µM [cytotoxic, full curve, poor fit]	–	–	–	–
O=C(O)[C@@H](c1ccc(OCc2ccc3ccccc3n2)cc1)C1CCCC1	inconclusive: 4.69 µM [cytotoxic, partial curve, poor fit]	inactive	inactive	inactive	inconclusive: 5.9 µM [cytotoxic, full curve, poor fit]	–	inactive	–	–	–	inactive: 106%	–
CCCCCN=C(N)NN=Cc1c[nH]c2ccc(OC)cc12	inconclusive: 8.33 µM [cytotoxic, full curve]	inconclusive: 8.33 µM [cytotoxic, full curve]	–	active: 7.43 µM	–	–	inconclusive: 8.33 µM [cytotoxic, full curve, poor fit]	–	–	–	–	–
O=C(O)[C@H](CC(=O)N1C[C@@H]2CCCC[C@H]2C1)Cc1ccccc1	inconclusive: 0.0059 µM [rising, full curve, poor fit]	–	inconclusive: 0.0833 µM [rising, full curve, poor fit]	inconclusive: 0.662 µM [rising, partial curve, poor fit]	inconclusive: 0.0166 µM [rising, full curve, poor fit]	inconclusive: 0.0037 µM [rising, full curve, poor fit]	inactive	inconclusive: 0.148 µM [cytotoxic, full curve, poor fit]	inactive	inconclusive: 4.2 nM [rising, full curve, poor fit]	–	–
CCCCN(CCCC)CCC(O)c1cc2c(Cl)cc(Cl)cc2c2cc(C(F)(F)F)ccc12 (stereo not given)	inconclusive: 29.6 µM [cytotoxic, single point]	inconclusive: 37.2 µM [cytotoxic, single point]	inactive	inconclusive: 0.059 µM [rising, full curve]	–	inconclusive: 23.5 µM [cytotoxic, partial curve, poor fit]	–	inconclusive: 16.6 µM [cytotoxic, partial curve, poor fit]	–	–	–	–
CCOc1ccc(Cc2cc([C@@H]3O[C@H](CO)[C@@H](O)[C@H](O)[C@@H]3O)ccc2Cl)cc1	inactive	inactive	active: 18.7 µM	–	inactive	inconclusive: 0.0187 µM [rising, full curve, poor fit]	–	–	–	–	–	–
C[C@H](NC(=O)C(=O)Nc1ccccc1C(C)(C)C)C(=O)N[C@@H](CC(=O)O)C(=O)COc1c(F)c(F)cc(F)c1F	inactive	–	active: 0.833 µM	inconclusive: 3.72 µM [cytotoxic, full curve]	inconclusive: 0.0021 µM [rising, full curve, poor fit]	active: 16.6 µM	inconclusive: 11.8 µM [cytotoxic, single point]	inconclusive: 1.18 µM [rising, partial curve]	–	inconclusive: 2.1 nM [rising, full curve]	–	–
COc1ccc([C@@H]2CC(=O)c3c(O)cc(O[C@@H]4O[C@H](CO[C@@H]5O[C@@H](C)[C@H](O)[C@@H](O)[C@@H]5O)[C@@H](O)[C@H](O)[C@@H]4O)cc3O2)cc1O	inactive and inconclusive: 33.2 µM [cytotoxic, single point]	inactive	–	inactive	inconclusive: 16.6 µM [rising, partial curve, poor fit]	–	–	–	–	–	–	–
COc1cccc2c1CCCC2CCCN1CCN(C2CCCCC2)CC1 (stereo not given)	inconclusive: 20.9 µM [cytotoxic, partial curve]	inconclusive: 18.7 µM [cytotoxic, partial curve, poor fit]	active: 16.6 µM	inactive	–	inconclusive: 23.5 µM [cytotoxic, single point]	inconclusive: 33.2 µM [cytotoxic, single point]	–	–	–	–	–
N#CC1(c2ccc(NC(=O)c3cccnc3NCc3ccncc3)cc2)CCCC1	inconclusive: 14.8 µM [cytotoxic, partial curve, poor fit]	–	inactive	inactive	inconclusive: 14.8 µM [cytotoxic, partial curve, poor fit]	inconclusive: 0.0132 µM [cytotoxic, full curve, poor fit]	–	inconclusive: 33.2 µM [cytotoxic, single point]	–	inconclusive: 18700 nM [cytotoxic, partial curve, poor fit]	–	–

Single records (already shown). Values in the order: Potency [1] | Potency [2] | Potency [3] | Potency [4] | Potency [5] | Potency [6] | Potency [7] | Potency [8] | Potency [9] | Potency [10] | viability [6] | viability, percent of control [4]
`O=C(O)[C@@H](c1ccc(OCc2ccc3ccccc3n2)cc1)C1CCCC1` is entered as inconclusive: 4.69 µM [cytotoxic, partial curve, poor fit] | inactive | inactive | inactive | inconclusive: 5.9 µM [cytotoxic, full curve, poor fit] | – | inactive | – | – | – | inactive: 106% | –
`COc1cccc2c1CCCC2CCCN1CCN(C2CCCCC2)CC1` (stereo not given) is entered as inconclusive: 20.9 µM [cytotoxic, partial curve] | inconclusive: 18.7 µM [cytotoxic, partial curve, poor fit] | active: 16.6 µM | inactive | – | inconclusive: 23.5 µM [cytotoxic, single point] | inconclusive: 33.2 µM [cytotoxic, single point] | – | – | – | – | –
